Data from the supplement of paper PMC12889115.
Some of the results follow. These are raw signals, not scaled to a control.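 First-pass screen: polymyxin B was added at a level that permeabilizes the Salmonella outer membrane while sparing the inner membrane. DMSO wells, with and without polymyxin B, defined maximum growth. Because plates differed from one another, each plate's data were ranked separately and the compounds with the lowest OD600 were carried forward as hits.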

Tested on: Salmonella enterica serovar Typhimurium SL1344
Experiment: bacterial growth OD600 after 18 h with compound and polymyxin B; higher = more bacterial growth (less inhibition)
Settings: 50 µM, Mueller-Hinton broth

Row | Structure (SMILES) | bacterial growth OD600 (polymyxin B 0.75 µg/mL) | bacterial growth OD600 (polymyxin B 1 µg/mL)
1 | COCCn1cnc2cc(NC(=O)C3CCCCC3)cc(C(=O)N(C)CCn3nc(C)cc3C)c21 | 0.979 | 
2 | Cc1cc(N2CCN(C(=O)C3CCC(=O)N(CC4CCCCC4)C3)CC2)cc(C)n1 (centres undefined) |  | 0.88
3 | CCN(CCn1cccn1)C(=O)c1cc(COc2ccc(OC)c3ccccc23)on1 |  | 0.245
4 | Cc1cc(C)n(CCN(C)C(=O)CC2(c3cccc(C(F)(F)F)c3)CC(=O)N(C3CC3)C2=O)n1 (centres undefined) | 0.79 | 
5 | Cc1cc(C(=O)N2CCC(n3nccc3NC(=O)c3ccc4c(c3)OCO4)CC2)nn1C |  | 0.907
6 | COC(=O)c1ccc(CNC(=O)CCC2(Cc3ccc(F)c(OC)c3)CCC(=O)N2)cc1 (centres undefined) | 1.01 | 
7 | CN(C)S(=O)(=O)NCc1cccnc1Oc1ccccc1F |  | 0.859
8 | CC(C)NC(=O)C1CCN(C2CCN(Cc3cc(CN4CCCCC4)cs3)CC2)CC1 |  | 1.08
9 | COc1ccc(CN(C)C2CCCN(CCc3ccccc3)C2)cc1Cn1cncn1 (centres undefined) |  | 0.955
10 | COc1ccc(OC2CCN(C(=O)CCC3(Cc4ccc(Cl)cc4)CCC(=O)N3)CC2)cc1 (centres undefined) | 0.703 | 
11 | CN(C)c1ncc2c(n1)CCCC2NC(=O)CCCN1CCCC1=O (centres undefined) |  | 0.906
12 | CCN1CCCC1CNC(=O)CCC1CCN(Cc2csc(C(C)=O)c2)CC1 (centres undefined) |  | 0.722
13 | CC1(C)CC(Nc2nc3nonc3nc2NC2CCCC2)CCO1 (centres undefined) |  | 0.797
14 | CC1(C)Cc2nc(C(C)(C)C)ncc2C(NC(=O)c2cnccn2)C1 (centres undefined) |  | 1.03
15 | O=C(CC1(c2ccc(-c3ccccc3)cc2)CC(=O)N(C2CC2)C1=O)N1CC[C@@H]2CCCC[C@H]2C1 (some centres undefined) | 0.007 | 
16 | COc1ccccc1CN(C)C(=O)c1coc(COc2ccc(F)cc2)n1 | 0.893 | 
17 | CCOC(=O)C1(Cc2cccc(OC)c2)CCN(Cc2cc(C(C)C)[nH]n2)CC1 |  | 0.827
18 | CCCc1cc(CN(C)C(=O)C2CCC(=O)N(CCc3ccccn3)C2)n[nH]1 (centres undefined) |  | 0.854
19 | CCN1CCN(C(=O)c2ccc(N3CCC(N(C)Cc4nc(-c5ccccc5)no4)CC3)cc2)CC1 | 0.917 | 
20 | COc1cccc(N2C(=O)CN(C(=O)c3ccc4[nH]ccc4c3)CC2C)c1 (centres undefined) | 0.917 | 
21 | CC(=O)N1CCC(C(=O)N2CCCC(Nc3ccc(C(C)C)cc3)C2)CC1 (centres undefined) |  | 0.971
22 | CCC1CN(CCC(=O)NCCCOc2cccnc2)Cc2ccc(Cl)cc2O1 (centres undefined) | 0.838 | 
23 | Cc1ncoc1C(=O)N1CCCC(CNC(=O)c2ccc(-c3ccccc3)cc2)C1 (centres undefined) |  | 1.15
24 | CC(CCn1cccn1)NC(=O)c1cn(Cc2ccccc2F)nn1 (centres undefined) |  | 1.11
25 | COc1cc(CN2CCC(c3nc(-c4ccncc4)ncc3-c3cccc(C)c3)CC2)ccc1F | 0.957 | 
26 | CCCCN(Cc1ccccc1)C(=O)CCc1nnc(C(OC)c2ccccc2)o1 (centres undefined) | 0.002 | 
27 | COc1ccc(CCN2CCCC(CN(C)Cc3ccc(F)c(OC)c3)C2)cc1 (centres undefined) |  | 0.655
28 | COc1ccc(CCN2CCCC(CN(C)Cc3ccc(OC)cc3)C2)cc1 (centres undefined) | 0.8 | 
29 | O[C@@H]1CN(Cc2cccn2-c2ccccn2)CC[C@H]1N1CCN(c2ccccn2)CC1 | 0.838 | 

In a second layout: entries from further up

| Row | Structure (SMILES) | bacterial growth OD600 (polymyxin B 0.75 µg/mL) | bacterial growth OD600 (polymyxin B 1 µg/mL) |
| --- | --- | --- | --- |
| 3 | CCN(CCn1cccn1)C(=O)c1cc(COc2ccc(OC)c3ccccc23)on1 |  | 0.245 |
| 12 | CCN1CCCC1CNC(=O)CCC1CCN(Cc2csc(C(C)=O)c2)CC1 (centres undefined) |  | 0.722 |
| 13 | CC1(C)CC(Nc2nc3nonc3nc2NC2CCCC2)CCO1 (centres undefined) |  | 0.797 |
| 14 | CC1(C)Cc2nc(C(C)(C)C)ncc2C(NC(=O)c2cnccn2)C1 (centres undefined) |  | 1.03 |
| 18 | CCCc1cc(CN(C)C(=O)C2CCC(=O)N(CCc3ccccn3)C2)n[nH]1 (centres undefined) |  | 0.854 |
| 23 | Cc1ncoc1C(=O)N1CCCC(CNC(=O)c2ccc(-c3ccccc3)cc2)C1 (centres undefined) |  | 1.15 |
| 27 | COc1ccc(CCN2CCCC(CN(C)Cc3ccc(F)c(OC)c3)C2)cc1 (centres undefined) |  | 0.655 |
